PubChem BioAssay AID1259284 | Sanger Institute, 2017
Aim: 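siRNA screen across the kinome seeking partners for BYL719, cetuximab or trametinib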 (primary screen). Cells: SW48 human colorectal cancer cells. Reagents: siRNA pool against human genes. Challenge: anchor drug BYL719 at 1 µM, cetuximab at 5 µg/ml or trametinib at 10 nM, or DMSO vehicle alone. Read-out: 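Viability scaled to non-targeting control pool, robust z-score from controls, and synergy scores for each drug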. Direction: robust z-score, no drug: higher = more cells survive knock-down; viability, no drug: higher = more viable cells; synergy with BYL719 and synergy with trametinib and synergy with cetuximab: higher = stronger combined killing with drug. Hit rule: 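a knock-down is essential if viability without drug gives a robust z-score under -3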. Calls: active = essential without drug; inactive = no change without drug.
Here is one part, drawn at random, of 794 deposited reagents. In the full data, 16 (2%) got an active call. 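Calls concern knock-down without drug only; drug synergy was judged apart, with scores above 0.15 taken as synergy.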 No viability above 1 is reported: the scale is capped. The record does not give: the amount of reagent, the time to read-out.

no.	Target gene	robust z-score, no drug	viability, no drug (fraction of control)	synergy with BYL719	synergy with trametinib	synergy with cetuximab	Outcome
1	AK1	0.426	1	-0.149	-0.0595	-0.0243	inactive
2	BMPR1B	0.426	1	-0.0406	-0.1	-0.0202	inactive
3	PKN3	-1.21	0.86	-0.0812	0.0283	0.0044	inactive
4	SBK1	0.426	1	-0.309	-0.254	-0.13	inactive
5	ADCK2	0.426	1	-0.206	-0.107	-0.0579	inactive
6	CDK2	0.426	1	-0.298	-0.0934	-0.165	inactive
7	CTNNB1	-0.518	0.919	-0.0879	-0.0333	-0.0346	inactive

Next part, starting with the last 2 of the part before.
no.	Target gene	robust z-score, no drug	viability, no drug (fraction of control)	synergy with BYL719	synergy with trametinib	synergy with cetuximab	Outcome
6	CDK2	0.426	1	-0.298	-0.0934	-0.165	inactive
7	CTNNB1	-0.518	0.919	-0.0879	-0.0333	-0.0346	inactive
8	STK17B	0.197	0.98	-0.15	0.0154	-0.107	inactive
9	SRPK2	0.426	1	-0.102	-0.212	-0.0073	inactive
10	CERT1	-0.262	0.941	-0.0173	-0.155	0.00793	inactive
11	SGK2	0.0561	0.968	-0.113	-0.0661	0.0687	inactive
12	DDR2	0.426	1	-0.16	-0.108	-0.104	inactive
13	KALRN	0.426	1	-0.318	-0.0998	-0.165	inactive
14	PRKAR2B	-2.6	0.74	-0.131	-0.0989	-0.126	inactive
15	TTBK1	0.426	1	-0.301	-0.0776	-0.157	inactive
16	SYNCRIP	-0.951	0.882	0.179	0.168	0.0808	inactive
17	N4BP2	0.426	1	-0.305	-0.234	-0.0461	inactive
18	PASK	0.426	1	-0.224	0.00633	-0.165	inactive
19	AK5	0.343	0.993	-0.0584	-0.126	-0.0141	inactive
20	MARK4	0.16	0.977	0.074	0.122	0.145	inactive
